Measured values taken from the supplement of paper PMC10849652.
Some of the results follow.

By UniProt entry, the sequences of proteins in these tests, tags left out. Where a name states a change or a piece, a line headed by the entry shows the natural chain unless it says otherwise.
UniProt Q96A37: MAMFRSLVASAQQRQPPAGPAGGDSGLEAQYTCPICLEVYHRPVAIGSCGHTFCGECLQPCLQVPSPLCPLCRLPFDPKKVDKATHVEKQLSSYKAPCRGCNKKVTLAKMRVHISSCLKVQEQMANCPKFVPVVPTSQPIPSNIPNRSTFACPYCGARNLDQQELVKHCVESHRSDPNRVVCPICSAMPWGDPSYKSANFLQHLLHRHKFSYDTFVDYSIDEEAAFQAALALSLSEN
UniProt P22670: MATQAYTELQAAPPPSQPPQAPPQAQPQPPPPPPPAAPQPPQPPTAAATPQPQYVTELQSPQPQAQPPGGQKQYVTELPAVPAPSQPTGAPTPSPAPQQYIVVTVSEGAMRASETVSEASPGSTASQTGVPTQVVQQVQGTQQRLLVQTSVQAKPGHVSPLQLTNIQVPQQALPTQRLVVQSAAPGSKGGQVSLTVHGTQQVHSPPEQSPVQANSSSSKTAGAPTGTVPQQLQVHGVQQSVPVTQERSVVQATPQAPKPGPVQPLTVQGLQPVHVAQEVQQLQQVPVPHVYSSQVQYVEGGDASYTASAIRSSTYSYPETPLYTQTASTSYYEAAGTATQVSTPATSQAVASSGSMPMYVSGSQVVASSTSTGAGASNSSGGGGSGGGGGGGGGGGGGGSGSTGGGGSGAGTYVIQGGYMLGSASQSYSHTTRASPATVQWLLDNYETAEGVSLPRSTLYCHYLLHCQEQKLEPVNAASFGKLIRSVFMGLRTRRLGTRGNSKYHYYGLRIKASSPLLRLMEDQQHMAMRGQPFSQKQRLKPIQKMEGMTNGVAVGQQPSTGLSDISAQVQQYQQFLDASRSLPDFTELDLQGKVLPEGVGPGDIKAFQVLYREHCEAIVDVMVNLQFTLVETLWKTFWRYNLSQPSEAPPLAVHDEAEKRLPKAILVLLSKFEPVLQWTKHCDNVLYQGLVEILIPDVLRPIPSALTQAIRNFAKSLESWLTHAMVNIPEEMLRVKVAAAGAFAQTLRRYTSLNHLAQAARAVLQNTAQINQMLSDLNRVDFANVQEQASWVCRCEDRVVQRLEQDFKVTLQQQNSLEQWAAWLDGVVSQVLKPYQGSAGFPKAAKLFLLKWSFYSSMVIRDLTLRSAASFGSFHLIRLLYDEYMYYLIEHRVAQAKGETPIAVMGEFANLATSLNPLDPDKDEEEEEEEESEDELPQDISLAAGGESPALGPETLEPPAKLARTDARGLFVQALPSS
UniProt P35241, whole entry, looked up: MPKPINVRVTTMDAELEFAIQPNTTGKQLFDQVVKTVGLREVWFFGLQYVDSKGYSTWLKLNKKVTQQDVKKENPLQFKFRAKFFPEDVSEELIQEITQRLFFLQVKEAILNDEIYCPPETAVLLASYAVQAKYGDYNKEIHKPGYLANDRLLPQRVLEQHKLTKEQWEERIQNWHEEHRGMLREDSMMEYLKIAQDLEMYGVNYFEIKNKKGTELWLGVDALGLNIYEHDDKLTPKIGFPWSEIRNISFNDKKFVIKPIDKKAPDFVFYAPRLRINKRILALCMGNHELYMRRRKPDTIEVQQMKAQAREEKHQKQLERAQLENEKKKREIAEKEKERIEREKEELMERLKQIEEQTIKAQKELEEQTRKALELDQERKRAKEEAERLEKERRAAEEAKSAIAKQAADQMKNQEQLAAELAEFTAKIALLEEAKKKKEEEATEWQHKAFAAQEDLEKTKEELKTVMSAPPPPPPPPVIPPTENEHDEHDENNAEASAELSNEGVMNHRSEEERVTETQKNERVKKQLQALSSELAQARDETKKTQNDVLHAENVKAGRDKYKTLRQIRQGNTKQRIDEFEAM
UniProt Q5EBL4: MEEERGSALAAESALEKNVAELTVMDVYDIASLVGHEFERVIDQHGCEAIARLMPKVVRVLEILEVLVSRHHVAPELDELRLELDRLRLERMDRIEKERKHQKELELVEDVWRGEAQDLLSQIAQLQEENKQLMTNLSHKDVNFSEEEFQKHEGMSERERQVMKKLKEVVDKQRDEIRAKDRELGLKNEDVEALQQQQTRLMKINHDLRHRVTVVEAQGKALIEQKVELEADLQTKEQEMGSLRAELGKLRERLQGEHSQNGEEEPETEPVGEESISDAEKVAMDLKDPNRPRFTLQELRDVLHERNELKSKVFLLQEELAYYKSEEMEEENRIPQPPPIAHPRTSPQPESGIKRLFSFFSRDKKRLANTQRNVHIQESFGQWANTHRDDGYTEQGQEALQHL
UniProt P48382: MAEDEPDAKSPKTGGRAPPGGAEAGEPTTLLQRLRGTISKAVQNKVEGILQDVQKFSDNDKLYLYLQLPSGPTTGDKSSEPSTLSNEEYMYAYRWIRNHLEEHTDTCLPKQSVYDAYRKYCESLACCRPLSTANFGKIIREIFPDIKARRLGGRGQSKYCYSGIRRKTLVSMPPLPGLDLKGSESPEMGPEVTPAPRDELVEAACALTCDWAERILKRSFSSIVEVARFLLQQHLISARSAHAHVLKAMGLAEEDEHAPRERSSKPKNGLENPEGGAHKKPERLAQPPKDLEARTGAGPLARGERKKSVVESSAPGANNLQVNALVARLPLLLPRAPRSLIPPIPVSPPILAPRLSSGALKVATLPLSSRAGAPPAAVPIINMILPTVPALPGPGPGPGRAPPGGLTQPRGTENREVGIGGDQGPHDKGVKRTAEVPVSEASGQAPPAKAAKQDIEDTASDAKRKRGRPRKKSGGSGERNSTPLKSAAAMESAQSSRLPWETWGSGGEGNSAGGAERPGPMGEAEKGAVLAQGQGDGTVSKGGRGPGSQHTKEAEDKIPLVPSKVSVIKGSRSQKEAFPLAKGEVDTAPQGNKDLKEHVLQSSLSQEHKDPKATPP
UniProt Q9NTX7: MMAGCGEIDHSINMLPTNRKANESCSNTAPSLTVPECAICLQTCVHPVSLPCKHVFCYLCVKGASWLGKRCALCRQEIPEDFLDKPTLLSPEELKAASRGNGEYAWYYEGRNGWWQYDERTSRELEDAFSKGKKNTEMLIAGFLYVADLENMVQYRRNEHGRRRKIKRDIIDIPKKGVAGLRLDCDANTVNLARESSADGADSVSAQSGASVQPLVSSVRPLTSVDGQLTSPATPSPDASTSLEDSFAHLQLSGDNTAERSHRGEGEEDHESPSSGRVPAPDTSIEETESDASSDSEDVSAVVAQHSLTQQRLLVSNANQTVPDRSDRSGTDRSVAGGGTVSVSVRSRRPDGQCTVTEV
UniProt Q92546: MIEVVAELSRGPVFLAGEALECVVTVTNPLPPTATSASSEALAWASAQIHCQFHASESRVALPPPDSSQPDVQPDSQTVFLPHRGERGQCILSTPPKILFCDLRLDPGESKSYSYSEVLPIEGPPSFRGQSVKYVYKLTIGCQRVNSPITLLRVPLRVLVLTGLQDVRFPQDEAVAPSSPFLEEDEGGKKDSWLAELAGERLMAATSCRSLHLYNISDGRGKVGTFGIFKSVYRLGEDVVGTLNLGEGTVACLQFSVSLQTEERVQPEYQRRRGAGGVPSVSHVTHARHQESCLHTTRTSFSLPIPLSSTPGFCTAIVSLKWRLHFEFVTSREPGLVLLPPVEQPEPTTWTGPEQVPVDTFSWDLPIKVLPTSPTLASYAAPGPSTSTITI
UniProt Q5RL73: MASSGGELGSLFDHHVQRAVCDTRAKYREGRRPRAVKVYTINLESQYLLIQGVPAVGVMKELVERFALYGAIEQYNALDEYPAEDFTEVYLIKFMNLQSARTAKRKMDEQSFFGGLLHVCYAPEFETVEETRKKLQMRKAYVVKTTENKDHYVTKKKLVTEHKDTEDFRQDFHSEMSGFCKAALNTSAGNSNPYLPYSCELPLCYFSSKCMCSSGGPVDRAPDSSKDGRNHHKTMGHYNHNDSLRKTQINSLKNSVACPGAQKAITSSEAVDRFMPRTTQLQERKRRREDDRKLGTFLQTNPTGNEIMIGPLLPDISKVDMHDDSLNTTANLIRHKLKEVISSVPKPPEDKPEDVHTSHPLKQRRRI
UniProt Q8WVD5: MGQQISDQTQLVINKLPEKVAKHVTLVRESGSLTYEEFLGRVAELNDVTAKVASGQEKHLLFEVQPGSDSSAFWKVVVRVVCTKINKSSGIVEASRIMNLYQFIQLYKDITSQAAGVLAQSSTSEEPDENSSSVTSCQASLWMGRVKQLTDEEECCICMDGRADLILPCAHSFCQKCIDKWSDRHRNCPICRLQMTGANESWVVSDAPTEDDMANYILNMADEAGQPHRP
UniProt O00287: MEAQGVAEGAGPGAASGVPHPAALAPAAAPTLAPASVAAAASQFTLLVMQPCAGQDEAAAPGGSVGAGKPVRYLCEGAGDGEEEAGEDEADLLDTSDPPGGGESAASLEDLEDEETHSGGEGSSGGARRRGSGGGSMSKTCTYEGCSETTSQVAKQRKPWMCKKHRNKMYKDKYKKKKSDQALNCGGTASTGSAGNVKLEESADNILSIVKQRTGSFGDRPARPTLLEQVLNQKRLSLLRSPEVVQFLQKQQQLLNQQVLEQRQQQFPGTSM
UniProt Q14498: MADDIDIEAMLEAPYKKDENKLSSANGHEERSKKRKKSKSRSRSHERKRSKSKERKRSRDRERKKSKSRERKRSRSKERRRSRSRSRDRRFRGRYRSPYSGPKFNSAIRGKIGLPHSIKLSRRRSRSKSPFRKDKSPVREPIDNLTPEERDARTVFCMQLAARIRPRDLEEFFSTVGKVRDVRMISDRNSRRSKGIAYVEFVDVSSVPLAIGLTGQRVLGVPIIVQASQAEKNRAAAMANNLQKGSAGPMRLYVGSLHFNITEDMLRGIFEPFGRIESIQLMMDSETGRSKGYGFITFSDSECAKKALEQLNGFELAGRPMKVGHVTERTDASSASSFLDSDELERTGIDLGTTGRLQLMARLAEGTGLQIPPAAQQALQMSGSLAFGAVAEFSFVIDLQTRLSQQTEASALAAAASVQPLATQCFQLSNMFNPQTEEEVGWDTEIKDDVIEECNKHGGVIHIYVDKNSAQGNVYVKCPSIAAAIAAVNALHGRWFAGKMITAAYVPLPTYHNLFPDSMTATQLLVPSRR
UniProt Q8NDN9: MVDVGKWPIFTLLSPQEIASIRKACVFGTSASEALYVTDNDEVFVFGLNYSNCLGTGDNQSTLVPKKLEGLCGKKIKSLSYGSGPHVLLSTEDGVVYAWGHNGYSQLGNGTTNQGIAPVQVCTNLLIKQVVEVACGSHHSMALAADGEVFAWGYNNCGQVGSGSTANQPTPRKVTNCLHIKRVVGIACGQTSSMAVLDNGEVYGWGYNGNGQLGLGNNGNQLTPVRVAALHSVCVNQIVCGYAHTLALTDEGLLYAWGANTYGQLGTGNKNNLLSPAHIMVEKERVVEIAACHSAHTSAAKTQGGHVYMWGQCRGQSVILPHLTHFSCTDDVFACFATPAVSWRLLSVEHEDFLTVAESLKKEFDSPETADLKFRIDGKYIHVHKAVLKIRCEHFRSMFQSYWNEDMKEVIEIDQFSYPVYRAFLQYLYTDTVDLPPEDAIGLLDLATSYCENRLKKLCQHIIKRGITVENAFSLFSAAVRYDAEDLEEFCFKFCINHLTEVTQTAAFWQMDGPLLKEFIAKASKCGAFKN
UniProt Q05823: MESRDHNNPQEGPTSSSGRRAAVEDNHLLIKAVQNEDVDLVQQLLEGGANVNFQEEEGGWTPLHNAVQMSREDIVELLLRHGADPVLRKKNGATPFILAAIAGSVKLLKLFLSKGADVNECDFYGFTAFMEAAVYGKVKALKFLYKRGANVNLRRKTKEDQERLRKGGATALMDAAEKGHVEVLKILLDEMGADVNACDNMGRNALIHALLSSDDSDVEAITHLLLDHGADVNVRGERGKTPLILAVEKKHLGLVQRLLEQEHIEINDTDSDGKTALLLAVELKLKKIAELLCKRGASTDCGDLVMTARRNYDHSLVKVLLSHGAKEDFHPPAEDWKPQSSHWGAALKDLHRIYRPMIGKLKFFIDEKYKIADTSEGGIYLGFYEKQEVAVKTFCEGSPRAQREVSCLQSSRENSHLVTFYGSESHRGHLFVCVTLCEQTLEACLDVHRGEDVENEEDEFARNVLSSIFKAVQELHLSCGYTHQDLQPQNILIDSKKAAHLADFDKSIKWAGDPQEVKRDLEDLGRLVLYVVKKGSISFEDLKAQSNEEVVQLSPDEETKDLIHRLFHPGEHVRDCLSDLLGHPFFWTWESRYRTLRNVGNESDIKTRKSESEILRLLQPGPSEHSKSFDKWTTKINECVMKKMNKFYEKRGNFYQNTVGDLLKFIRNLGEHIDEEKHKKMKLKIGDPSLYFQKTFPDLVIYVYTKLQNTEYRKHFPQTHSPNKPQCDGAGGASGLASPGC
UniProt Q96GF1: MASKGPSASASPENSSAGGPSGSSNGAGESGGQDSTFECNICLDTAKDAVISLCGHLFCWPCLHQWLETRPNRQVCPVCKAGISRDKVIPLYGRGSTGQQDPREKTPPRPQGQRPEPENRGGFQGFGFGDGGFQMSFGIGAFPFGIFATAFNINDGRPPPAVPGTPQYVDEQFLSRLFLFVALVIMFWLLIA

What was measured:
Assay in all cases: log2 fold change, soluble protein after heating vs DMSO (PISA); higher = thermal stabilisation; K562 cells, 10 uM, 30 min; active = over 0.2 and 3.5 SD of the protein, either way, in both replicates (recomputed)
[1] = compound: CC1=C(C=C(C=C1)NC(=O)C2=CC(=CC=C2)C(C)(C)C#N)NC3=CC4=C(C=C3)N=CN(C4=O)C
Method in brief: (§1)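 K562 cells at 2×10^6 cells/mL were treated with 10 μM compound for 30 min. Aliquots were heated for 3 min across 48°C-58°C, pooled, and extracted in PBS with 0.5% NP-40 at 4°C; soluble protein was the supernatant after 21,000xg for 90 min. Soluble protein was quantified by TMTpro 16plex LC-MS/MS with channel sums equalised, and reported as log2 fold change in thermal stability against DMSO controls, with values from duplicates.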

[2] = compound: CC1=C(C=C(C=C1)NC(=O)C2=CC(=CC=C2)N(C)C)NC(=O)C3=CC=C(C=C3)O
Method in brief: as §1

[3] = compound: CC1=CC=C(C=C1)SC2=C3C=C(SC3=CN=C2)C(=O)N
Method in brief: as §1

vemurafenib = compound: CCCS(=O)(=O)Nc1ccc(F)c(C(=O)c2c[nH]c3ncc(-c4ccc(Cl)cc4)cc23)c1F [vemurafenib]
Method in brief: as §1

[4] = compound: CCCS(=O)(=O)Nc1ccc(F)c(C(=O)c2c[nH]c3ncc(Cl)cc23)c1F
Method in brief: as §1

[5] = compound: CC1=NC(=CC=C1)C2=C(N=C(N2)C(C)(C)C)C3=CC4=NC=CN=C4C=C3
Method in brief: as §1

Nexturastat A = compound: CCCCN(Cc1ccc(C(=O)NO)cc1)C(=O)Nc1ccccc1 [Nexturastat A]
Method in brief: as §1

[6] = compound: CCCc1cc(C)[nH]c(=O)c1CNC(=O)c1cc(-c2ccnc(N3CCN(C)CC3)c2)cc2c1cnn2C(C)C
Method in brief: as §1

givinostat = compound: CCN(CC)Cc1ccc2cc(COC(=O)Nc3ccc(C(=O)NO)cc3)ccc2c1 [givinostat]
Method in brief: as §1

barasertib = compound: CCN(CCCOc1ccc2c(Nc3cc(CC(=O)Nc4cccc(F)c4)[nH]n3)ncnc2c1)CCOP(=O)(O)O [barasertib]
Method in brief: as §1

Measured: log2 fold change

RLIM (UniProt Q9NVW2)
inactive: [1] 0.1 | [2] 0 | [3] -0.024 | vemurafenib -0.066 | [4] -0.183

RNF139 (UniProt Q8WU17)
inactive: [1] 0.093 | [2] -0.007 | [5] -0.046 | Nexturastat A -0.031 | vemurafenib -0.01 | [6] -0.107 | givinostat 0.05 | barasertib 0.036

RETREG2 (UniProt Q8NC44)
inactive: [1] 0.086 | [2] -0.018 | [3] 0.019 | [5] -0.025 | vemurafenib 0.081 | [4] 0.087 | [6] -0.06 | givinostat 0.024 | barasertib 0.011

RCN3 (UniProt Q96D15)
inactive: [1] -0.055 | [2] 0.029 | [3] -0.028 | [5] -0.073 | Nexturastat A 0.077 | vemurafenib -0.003 | [4] -0.053 | [6] -0.145 | givinostat -0.023 | barasertib -0.011

RNF166 (UniProt Q96A37)
inactive: [1] -0.037 | [2] 0.006 | [3] 0.071 | vemurafenib -0.065 | [4] 0.045 | [6] 0.005 | givinostat 0.038

RELCH isoform 2 (UniProt Q9P260)
inactive: [1] 0.006 | [2] -0.089 | Nexturastat A -0.042 | vemurafenib -0.026 | [6] -0.114 | givinostat 0.105 | barasertib 0.225

RFC1 (UniProt P35251)
inactive: [1] 0.063 | [2] -0.081 | vemurafenib -0.088

RDH10 (UniProt Q8IZV5)
inactive: [1] 0.004 | [2] -0.034 | [3] 0.047 | [5] -0.055 | Nexturastat A -0.107 | vemurafenib -0.016 | [4] -0.058 | [6] -0.043 | givinostat -0.091 | barasertib 0.011

RCOR3 isoform 3 (UniProt Q9P2K3)
inactive: [1] -0.12 | [2] -0.046 | [3] 0.051 | [5] 0.012 | vemurafenib 0.025 | [4] 0.031 | [6] -0.022 | givinostat 0.075 | barasertib 0.098

RCE1 (UniProt Q9Y256)
inactive: [1] 0.053 | [2] 0.005 | [3] 0.02 | Nexturastat A -0.272 | vemurafenib -0.135 | [4] 0.012 | [6] -0.016 | givinostat -0.007 | barasertib -0.068

RFX1 (UniProt P22670)
inactive: [1] 0.071 | [2] 0.002 | [3] 0.02 | [5] -0.027 | Nexturastat A -0.119 | vemurafenib -0.034 | [4] 0.073 | [6] 0.05 | givinostat -0.082 | barasertib 0.009

RERE (UniProt Q9P2R6)
inactive: [1] -0.064 | [2] -0.083 | [5] 0 | Nexturastat A 0.039 | [6] 0.123 | givinostat 0.133 | barasertib 0.145

RDX (UniProt P35241)
inactive: [1] 0.002 | [2] -0.002 | [3] 0.03 | [5] 0.052 | Nexturastat A -0.091 | vemurafenib -0.017 | [4] 0.011 | [6] 0.02 | givinostat -0.025 | barasertib -0.001

RNF168 (UniProt Q8IYW5)
inactive: [1] 0.171 | [2] -0.206 | [3] 0.111 | [4] -0.02 | [6] -0.291 | givinostat 0.052 | barasertib 0.002

RILPL1 (UniProt Q5EBL4)
inactive: [1] 0.014 | [2] 0.109 | [5] -0.073 | Nexturastat A 0.134 | vemurafenib 0.071 | [6] -0.076 | givinostat 0.167

RFX5 (UniProt P48382)
inactive: [1] 0.04 | [2] 0.018 | [3] 0.073 | [5] 0.017 | Nexturastat A -0.067 | [4] -0.047 | givinostat 0.077 | barasertib 0.19

RNF146 (UniProt Q9NTX7)
inactive: [1] -0.103 | [2] 0.001 | [3] 0.027 | [5] -0.083 | Nexturastat A -0.005 | vemurafenib -0.09 | [4] -0.063 | givinostat -0.012 | barasertib 0.001

RGP1 (UniProt Q92546)
inactive: [1] -0.039 | [2] -0.017 | Nexturastat A -0.034 | vemurafenib -0.166 | [6] -0.195 | givinostat -0.023 | barasertib 0.029

RBM48 isoform 2 (UniProt Q5RL73)
active: [1] -0.708
inactive: [2] -0.13 | [3] -0.009 | [5] -0.007 | Nexturastat A 0.04 | [4] -0.011 | givinostat -0.03 | barasertib -0.069

RNF141 (UniProt Q8WVD5)
inactive: [1] -0.021 | [2] -0.042 | [3] 0.004 | [5] 0.118 | vemurafenib -0.005 | [4] 0.079 | givinostat -0.088 | barasertib -0.073

RFXAP (UniProt O00287)
inactive: [1] -0.008 | [2] -0.023 | [3] -0.026 | [5] -0.031 | Nexturastat A 0.123 | vemurafenib -0.076 | [4] -0.048 | [6] 0.03 | givinostat 0.046 | barasertib -0.019

RBM39 (UniProt Q14498)
inactive: [1] -0.035 | [2] 0 | [3] -0.011 | [5] 0.071 | Nexturastat A 0.043 | vemurafenib 0.084 | [4] 0.083 | [6] 0.034 | givinostat 0.131 | barasertib 0.012

RFC5 (UniProt P40937)
inactive: [1] -0.041 | [2] 0.027 | [3] 0.045 | [5] 0.033 | Nexturastat A -0.085 | vemurafenib 0 | [4] 0.013 | [6] -0.015 | givinostat 0.022 | barasertib 0.029

RNASEH2B (UniProt Q5TBB1)
inactive: [1] 0.05 | [2] -0.091 | [3] 0.041 | [5] 0.137 | Nexturastat A -0.12 | vemurafenib 0 | [4] 0.075 | [6] -0.056 | givinostat 0.16 | barasertib 0.136

RER1 (UniProt O15258)
inactive: [1] -0.02 | [2] 0.037 | [3] -0.001 | [5] 0.012 | Nexturastat A 0.013 | vemurafenib 0.022 | [4] 0.033 | [6] 0.043 | givinostat 0.014 | barasertib -0.024

RHOA (UniProt P61586)
inactive: [1] 0.015 | [2] -0.073 | [3] 0.047 | [5] 0.061 | Nexturastat A 0.039 | vemurafenib -0.042 | [4] 0.074 | [6] 0.145 | givinostat -0.032 | barasertib 0.026

Eight consecutive records from above, quoted:
RNF139 (UniProt Q8WU17)
inactive: [1] 0.093 | [2] -0.007 | [5] -0.046 | Nexturastat A -0.031 | vemurafenib -0.01 | [6] -0.107 | givinostat 0.05 | barasertib 0.036

RETREG2 (UniProt Q8NC44)
inactive: [1] 0.086 | [2] -0.018 | [3] 0.019 | [5] -0.025 | vemurafenib 0.081 | [4] 0.087 | [6] -0.06 | givinostat 0.024 | barasertib 0.011

RCN3 (UniProt Q96D15)
inactive: [1] -0.055 | [2] 0.029 | [3] -0.028 | [5] -0.073 | Nexturastat A 0.077 | vemurafenib -0.003 | [4] -0.053 | [6] -0.145 | givinostat -0.023 | barasertib -0.011

RNF166 (UniProt Q96A37)
inactive: [1] -0.037 | [2] 0.006 | [3] 0.071 | vemurafenib -0.065 | [4] 0.045 | [6] 0.005 | givinostat 0.038

RELCH isoform 2 (UniProt Q9P260)
inactive: [1] 0.006 | [2] -0.089 | Nexturastat A -0.042 | vemurafenib -0.026 | [6] -0.114 | givinostat 0.105 | barasertib 0.225

RFC1 (UniProt P35251)
inactive: [1] 0.063 | [2] -0.081 | vemurafenib -0.088

RDH10 (UniProt Q8IZV5)
inactive: [1] 0.004 | [2] -0.034 | [3] 0.047 | [5] -0.055 | Nexturastat A -0.107 | vemurafenib -0.016 | [4] -0.058 | [6] -0.043 | givinostat -0.091 | barasertib 0.011

RCOR3 isoform 3 (UniProt Q9P2K3)
inactive: [1] -0.12 | [2] -0.046 | [3] 0.051 | [5] 0.012 | vemurafenib 0.025 | [4] 0.031 | [6] -0.022 | givinostat 0.075 | barasertib 0.098

More entries:

RNF123 isoform 2 (UniProt Q5XPI4)
inactive: [1] -0.035 | [2] -0.036 | [3] 0.015 | [5] 0.175 | Nexturastat A -0.053 | vemurafenib 0.027 | [4] -0.006 | [6] 0.011 | givinostat 0.028 | barasertib 0.07

RCBTB1 (UniProt Q8NDN9)
inactive: [1] 0.168 | Nexturastat A 0.023 | givinostat -0.197 | barasertib 0.049

RGS14 (UniProt O43566)
inactive: [2] 0.152 | Nexturastat A 0.1 | vemurafenib -0.268 | [6] -0.153 | givinostat 0.173 | barasertib 0.054

RNASEL (UniProt Q05823)
inactive: [2] 0.052 | [6] 0.164

RBP4 (UniProt P02753)
inactive: [2] 0.422 | [5] 0.077 | vemurafenib 0.012 | [6] -0.385 | givinostat 0.004 | barasertib -0.029

RNF185 (UniProt Q96GF1)
inactive: [2] -0.055 | [3] -0.074 | vemurafenib 0.009 | [4] 0.1 | [6] -0.081 | givinostat -0.013 | barasertib 0.055
